Measured values: patent publication US20230382910A1, “HETEROARYL COMPOUNDS FOR THE TREATMENT OF PAIN” (VERTEX PHARMACEUTICALS INCORPORATED, priority 2022, published 2023)
Some results were stated once for a whole list of compounds, not compound by compound.

Amino acid sequences for entries named in this document (tags omitted). Residues count along the entry.
UniProt Q9Y5Y9, 660-890 limits assumed: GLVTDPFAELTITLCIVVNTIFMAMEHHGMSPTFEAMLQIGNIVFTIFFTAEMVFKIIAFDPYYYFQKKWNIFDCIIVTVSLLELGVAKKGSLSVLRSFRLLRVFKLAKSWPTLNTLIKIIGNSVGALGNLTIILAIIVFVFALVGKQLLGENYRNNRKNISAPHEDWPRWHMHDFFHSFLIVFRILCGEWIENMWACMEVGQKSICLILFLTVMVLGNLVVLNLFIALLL
UniProt Q9Y5Y9, 1148-1722 limits assumed: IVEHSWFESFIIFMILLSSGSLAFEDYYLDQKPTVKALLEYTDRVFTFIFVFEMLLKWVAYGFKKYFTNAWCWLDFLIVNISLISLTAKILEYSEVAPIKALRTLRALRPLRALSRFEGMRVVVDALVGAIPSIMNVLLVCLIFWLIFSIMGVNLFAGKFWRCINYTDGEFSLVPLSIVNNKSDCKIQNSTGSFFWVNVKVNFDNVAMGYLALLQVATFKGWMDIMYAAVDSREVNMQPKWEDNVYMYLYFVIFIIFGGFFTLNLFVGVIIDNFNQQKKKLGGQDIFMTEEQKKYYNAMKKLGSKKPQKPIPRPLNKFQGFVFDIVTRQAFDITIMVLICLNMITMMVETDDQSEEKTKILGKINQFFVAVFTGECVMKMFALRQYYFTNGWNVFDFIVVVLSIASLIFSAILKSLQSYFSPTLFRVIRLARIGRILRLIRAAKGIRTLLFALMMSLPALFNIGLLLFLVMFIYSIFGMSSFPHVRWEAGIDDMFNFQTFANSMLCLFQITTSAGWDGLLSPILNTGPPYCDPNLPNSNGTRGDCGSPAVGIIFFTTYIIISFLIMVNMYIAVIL
UniProt Q9Y5Y9, 126-399 limits assumed: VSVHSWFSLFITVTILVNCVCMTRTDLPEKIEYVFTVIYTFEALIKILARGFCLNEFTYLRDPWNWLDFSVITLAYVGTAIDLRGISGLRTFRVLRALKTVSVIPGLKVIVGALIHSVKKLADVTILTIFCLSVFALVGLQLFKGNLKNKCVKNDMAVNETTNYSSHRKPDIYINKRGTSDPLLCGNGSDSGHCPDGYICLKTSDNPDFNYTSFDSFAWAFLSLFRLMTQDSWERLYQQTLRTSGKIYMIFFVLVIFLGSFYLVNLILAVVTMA

Biological target: human NaV 1.8 (Homo sapiens, UniProt Q9Y5Y9)
Experiment: E-VIPR Assay Detecting and Measuring NaV Inhibition Properties
Assay type: cell-based
Details: HEK cells expressing a truncated form of human NaV 1.8; electrical stimulation, membrane potential FRET dyes; read-out: measured IC50 value in the E-VIPR Assay
Excerpt: E-VIPR Assay Detecting and Measuring NaV Inhibition Properties
Sodium ion channels are voltage-dependent proteins that can be activated by inducing membrane voltage changes by applying electric fields. The electrical stimulation instrument and methods of use, referred to as E-VIPR, are described in International Publication No. WO 2002/008748 A3 and C.-J. Huang et al. Characterization of voltage-gated sodium channel blockers by electrical stimulation and fluorescence detection of membrane potential, 24 Nature Biotech. 439-46 (2006), both of which are incorporated by reference in their entirety. The instrument comprises a microtiter plate handler, an optical system for exciting the coumarin dye while simultaneously recording the coumarin and oxonol emissions, a waveform generator, a current- or voltage-controlled amplifier, and parallel electrode pairs that are inserted into assay plate wells. Under integrated computer control, this instrument passes user-programmed electrical stimulus protocols to cells within the wells of the microtiter plate.
16-20 hours prior to running the assay on E-VIPR, HEK cells expressing a truncated form of human NaV 1.8 with full channel activity were seeded into microtiter 384-well plates, pre-coated with matrigel, at a density of 25,000 cells per well. 2.5-5% KIR2.1 BacMam virus was added to the final cell suspension before seeding into cell plates. HEK cells were grown in Dulbecco's Modified Eagle's Medium (DMEM) supplemented with 10% FBS (Fetal Bovine Serum, qualified; Sigma #F4135), 1% NEAA (Non-Essential Amino Acids, Gibco #11140), 1% HEPES (Gibco #15630), 1% Pen-Strep (Penicillin-Streptomycin; Gibco #15140) and 5 μg/ml Blasticidin (Gibco #R210-01). Cells were expanded in 5-layer CellSTACK culture chambers or cell culture flasks with vented caps, with 90-95% humidity and 5% CO2.
Compound Loading Buffer (2× concentration): Na/TMA Cl Bath1 Buffer containing HS (omitted in experiments run in the absence of human serum (HS)) 50%, VABSC-1 1 mM, BSA 0.2 mg/ml (in Bath-1), KCl 9 mM, DMSO 0.625%.
Assay Protocol (7 Key Steps):
1) To reach the final concentration in each well, 375 nL of each compound was pre-spotted (in neat DMSO) into polypropylene compound plates at 240× desired final concentration from an intermediate stock concentration of 0.075 mM, in an 11-point dose response, 3-fold dilution, resulting in a top dose of 300 nM final concentration in the cell plate. Vehicle control (neat DMSO), and positive control (an established NaV1.8 inhibitor, 25 μM final in assay in DMSO) were added manually to the outermost columns of each plate respectively. The compound plate was backfilled with 45 μL per well of Compound Loading Buffer resulting in a 240-fold dilution of compound following a 1:1 transfer of compound into the cell plate (see Step 6). Final DMSO concentration for all wells in the assay was 0.625% (0.75% DMSO was supplemented to the Compound Loading Buffer for a final DMSO concentration of 0.625%). This assay dilution protocol was adjusted to enable a higher dose range to be tested in the presence of HS or if the final assay volume was altered.
2) Hexyl Dye Solution was prepared.
3) Cell plates were prepared. On the day of the assay, the media was aspirated, and the cells were washed three times with 80 μL of Bath-1 buffer, maintaining 25 μL residual volume in each well.
4) 25 μL per well of Hexyl Dye Solution was dispensed into the cell plates. The cells were incubated for 20 minutes at room temperature or ambient conditions in darkness.
5) 45 μL per well of Compound Loading Buffer was dispensed into compound plates.
6) The cell plates were washed three times with 80 μL per well of Bath-1 Buffer, leaving 25 µL of residual volume. Then 25 μL per well from compound plate was transferred to each cell plate. The mixture was incubated for 30 minutes at room temperature/ambient conditions. […]

Question: For `Cc1cc(C(C)C(F)(F)F)c(C)cc1-c1cc(=O)c2cc(F)ccc2[nH]1` (racemic) [Compound 332, rac-2-[2,5-dimethyl-4-(2,2,2-trifluoro-1-methyl-ethyl)phenyl]-6-fluoro-1H-quinolin-4-one], which IC50 is on record?
Answer: Its IC50 is less than 0.5 µM.

Question: Which IC50 does the source give for `Cc1cc(C(C)(C(=O)O)C(F)(F)F)c(Cl)cc1-c1cc(=O)c2c(C(N)=O)nccc2[nH]1` (racemic) [Compound 367, rac-2-[4-(5-carbamoyl-4-oxo-1H-1,6-naphthyridin-2-yl)-2-chloro-5-methyl-phenyl]-3,3,3-trifluoro-2-methyl-propanoic acid] here?
Answer: Its IC50 is less than 0.5 µM.

Question: For `Cc1cc([C@@H](C)C(F)(F)F)c(C)cc1-c1cc(=O)c2cc(F)ccc2[nH]1` (single isomer, unassigned) [Compound 333], which IC50 is on record?
Answer: The IC50 was less than 0.5 µM.

Question: `Cc1cc([C@H](C)C(F)(F)F)c(C)cc1-c1cc(=O)c2cc(F)ccc2[nH]1` (single isomer, unassigned) [Compound 334] was tested. Which IC50 did it give?
Answer: Its IC50 is less than 0.5 µM.

Question: How did the IC50 turn out when `Cc1cc(C2(C)CC3CC3C2)c(Cl)cc1-c1cc(=O)c2c(C(N)=O)nccc2[nH]1` (single isomer, unassigned) [Compound 362, 2-(5-chloro-2-methyl-4-(3-methylbicyclo[3.1.0]hexan-3-yl)phenyl)-4-oxo-1,4-dihydro-1,6-naphthyridine-5-carboxamide] was run?
Answer: The IC50 was less than 0.5 µM.

Question: How did the IC50 turn out when `Cc1cc(C2(C)CCC(F)(F)C2)c(Cl)cc1-c1cc(=O)c2c(C(N)=O)nccc2[nH]1` (single isomer, unassigned) [Compound 421] was run?
Answer: The IC50 was less than 0.5 µM.

Question: For `Cc1nc(C2(C)CCC(F)(F)C2)c(Cl)cc1-c1cc(=O)c2c(C(N)=O)nccc2[nH]1` (single isomer, unassigned) [Compound 423], which IC50 is on record?
Answer: Its IC50 is less than 0.5 µM.

Question: `O=c1cc(-c2ccc(C(F)(F)F)c(F)c2)[nH]c2ccccc12` [Compound 1, 2-[3-fluoro-4-(trifluoromethyl)phenyl]-1H-quinolin-4-one] was tested. Which IC50 did it give?
Answer: The IC50 was no less than 5 µM.

Question: With `COc1ccc(-c2cc(=O)c3ccccc3[nH]2)c(C)c1C` [Compound 2, 2-(4-methoxy-2,3-dimethyl-phenyl)-1H-quinolin-4-one] as the molecule, how does the IC50 read?
Answer: The IC50 was no less than 5 µM.

Question: With `O=c1cc(-c2ccc3c(c2)CCC3)[nH]c2ccccc12` [Compound 3, 2-indan-5-yl-1H-quinolin-4-one] as the molecule, how does the IC50 read?
Answer: The IC50 was no less than 5 µM.

Question: With `Cc1cc(C(C)(C)C)ccc1-c1cc(=O)c2ccccc2[nH]1` [Compound 4, 2-(4-tert-butyl-2-methyl-phenyl)-1H-quinolin-4-one] as the molecule, how does the IC50 read?
Answer: Its IC50 is less than 0.5 µM.

Question: `O=c1cc(-c2ccc(C3CC3)cc2F)[nH]c2ccccc12` [Compound 9, 2-(4-cyclopropyl-2-fluoro-phenyl)-1H-quinolin-4-one] was tested. Which IC50 did it give?
Answer: Its IC50 is no less than 5 µM.

Question: `O=c1cc(-c2ccc(C(F)(F)F)cc2F)[nH]c2ccccc12` [Compound 10, 2-[2-fluoro-4-(trifluoromethyl)phenyl]-1H-quinolin-4-one] was tested. Which IC50 did it give?
Answer: The IC50 was no less than 5 µM.

Question: How did the IC50 turn out when `COc1cc(Cl)ccc1-c1cc(=O)c2ccccc2[nH]1` [Compound 11, 2-(4-chloro-2-methoxy-phenyl)-1H-quinolin-4-one] was run?
Answer: Its IC50 is no less than 5 µM.

Question: How did the IC50 turn out when `COc1ccc(C(F)(F)F)cc1-c1cc(=O)c2ccccc2[nH]1` [Compound 13, 2-[2-methoxy-5-(trifluoromethyl)phenyl]-1H-quinolin-4-one] was run?
Answer: Its IC50 is no less than 5 µM.

Question: `COc1cc(C(C)(C)C)ccc1-c1cc(=O)c2ccccc2[nH]1` [Compound 14, 2-(4-tert-butyl-2-methoxy-phenyl)-1H-quinolin-4-one] was tested. Which IC50 did it give?
Answer: The IC50 was less than 0.5 µM.

Question: For `COc1c(-c2cc(=O)c3ccccc3[nH]2)cccc1C(F)(F)F` [Compound 15, 2-[2-methoxy-3-(trifluoromethyl)phenyl]-1H-quinolin-4-one], which IC50 is on record?
Answer: The IC50 was no less than 5 µM.

Question: For `Cc1cc(-c2cc(=O)c3ccccc3[nH]2)ccc1C(F)(F)F` [Compound 16, 2-[3-methyl-4-(trifluoromethyl)phenyl]-1H-quinolin-4-one], which IC50 is on record?
Answer: The IC50 was no less than 5 µM.

Question: `O=c1cc(-c2ccc(C(F)(F)F)cc2O)[nH]c2ccccc12` [Compound 18, 2-[2-hydroxy-4-(trifluoromethyl)phenyl]-1H-quinolin-4-one] was tested. Which IC50 did it give?
Answer: The IC50 was no less than 5 µM.

Question: With `Cc1cc(-c2cc(=O)c3ccccc3[nH]2)ccc1OC(F)(F)F` [Compound 20, 2-[3-methyl-4-(trifluoromethoxy)phenyl]-1H-quinolin-4-one] as the molecule, how does the IC50 read?
Answer: Its IC50 is no less than 5 µM.

Question: How did the IC50 turn out when `Cc1cc(-c2cc(=O)c3ccccc3[nH]2)cc(C(F)(F)F)c1` [Compound 21, 2-[3-methyl-5-(trifluoromethyl)phenyl]-1H-quinolin-4-one] was run?
Answer: Its IC50 is no less than 5 µM.

Question: For `COc1c(C)cccc1-c1cc(=O)c2ccccc2[nH]1` [Compound 22, 2-(2-methoxy-3-methyl-phenyl)-1H-quinolin-4-one], which IC50 is on record?
Answer: The IC50 was no less than 5 µM.

Question: Which IC50 does the source give for `Cc1c(F)cccc1-c1cc(=O)c2ccccc2[nH]1` [Compound 24, 2-(3-fluoro-2-methyl-phenyl)-1H-quinolin-4-one] here?
Answer: Its IC50 is no less than 5 µM.

Question: How did the IC50 turn out when `COc1cc(C)cc(-c2cc(=O)c3ccccc3[nH]2)c1` [Compound 25, 2-(3-methoxy-5-methyl-phenyl)-1H-quinolin-4-one] was run?
Answer: Its IC50 is no less than 5 µM.

Question: How did the IC50 turn out when `Cc1cc(-c2cc(=O)c3ccccc3[nH]2)cc(C(C)(C)C)c1` [Compound 26, 2-(3-tert-butyl-5-methyl-phenyl)-1H-quinolin-4-one] was run?
Answer: The IC50 was no less than 5 µM.

Question: For `CCOc1cc(C)cc(-c2cc(=O)c3ccccc3[nH]2)c1F` [Compound 27, 2-(3-ethoxy-2-fluoro-5-methyl-phenyl)-1H-quinolin-4-one], which IC50 is on record?
Answer: Its IC50 is no less than 5 µM.

Question: With `CCc1cc(-c2cc(=O)c3ccccc3[nH]2)ccc1Cl` [Compound 29, 2-(4-chloro-3-ethyl-phenyl)-1H-quinolin-4-one] as the molecule, how does the IC50 read?
Answer: The IC50 was no less than 5 µM.

Question: How did the IC50 turn out when `COc1ccc(-c2cc(=O)c3ccccc3[nH]2)cc1C(F)(F)F` [Compound 30, 2-[4-methoxy-3-(trifluoromethyl)phenyl]-1H-quinolin-4-one] was run?
Answer: Its IC50 is no less than 5 µM.

Question: How did the IC50 turn out when `COc1c(C)cc(-c2cc(=O)c3ccccc3[nH]2)cc1C` [Compound 31, 2-(4-methoxy-3,5-dimethyl-phenyl)-1H-quinolin-4-one] was run?
Answer: The IC50 was no less than 5 µM.

Question: Which IC50 does the source give for `O=c1cc(-c2cccc(OC(F)(F)F)c2)[nH]c2ccccc12` [Compound 32, 2-[3-(trifluoromethoxy)phenyl]-1H-quinolin-4-one] here?
Answer: The IC50 was no less than 5 µM.

Question: For `Cc1cc(Cl)c(-c2cc(=O)c3ccccc3[nH]2)cc1F` [Compound 33, 2-(2-chloro-5-fluoro-4-methyl-phenyl)-1H-quinolin-4-one], which IC50 is on record?
Answer: Its IC50 is no less than 5 µM.

Question: Which IC50 does the source give for `O=c1cc(-c2ccccc2OC(F)(F)F)[nH]c2ccccc12` [Compound 34] here?
Answer: The IC50 was no less than 5 µM.

Question: For `COc1cccc(C)c1-c1cc(=O)c2ccccc2[nH]1` [Compound 35, 2-(2-methoxy-6-methyl-phenyl)-1H-quinolin-4-one], which IC50 is on record?
Answer: Its IC50 is no less than 5 µM.

Question: For `COc1ccc(C(C)=O)cc1-c1cc(=O)c2ccccc2[nH]1` [Compound 36, 2-(5-acetyl-2-methoxy-phenyl)-1H-quinolin-4-one], which IC50 is on record?
Answer: Its IC50 is no less than 5 µM.

Question: With `CC(C)(C)Oc1ccc(-c2cc(=O)c3ccccc3[nH]2)cc1` [Compound 37, 2-(4-tert-butoxyphenyl)-1H-quinolin-4-one] as the molecule, how does the IC50 read?
Answer: Its IC50 is no less than 5 µM.

Question: `CC(C)c1ccc(-c2cc(=O)c3ccccc3[nH]2)c(C(C)C)c1` [Compound 38, 2-(2,4-diisopropylphenyl)-1H-quinolin-4-one] was tested. Which IC50 did it give?
Answer: Its IC50 is less than 0.5 µM.

Question: Which IC50 does the source give for `CC(C)(C)c1ccccc1-c1cc(=O)c2ccccc2[nH]1` [Compound 39, 2-(2-tert-butylphenyl)-1H-quinolin-4-one] here?
Answer: The IC50 was no less than 5 µM.

Question: For `COc1cc(C)cc(-c2cc(=O)c3ccccc3[nH]2)c1OC` [Compound 40, 2-(2,3-dimethoxy-5-methyl-phenyl)-1H-quinolin-4-one], which IC50 is on record?
Answer: Its IC50 is no less than 5 µM.

Question: How did the IC50 turn out when `O=c1cc(-c2cc(C(F)(F)F)ccc2CO)[nH]c2ccccc12` [Compound 41, 2-[2-(hydroxymethyl)-5-(trifluoromethyl)phenyl]-1H-quinolin-4-one] was run?
Answer: Its IC50 is no less than 5 µM.
